Results are given in words; binding and its absence hold for the method and conditions named. Some results given as binding are weak or reduced against the parent protein; the word gives no strength.

The target in this assay is A2S GLP-2 IgG4 mimetibody. Put plainly: SEC-SLS, self-association of the mimetibody.

B1: A2S GLP-2 IgG4 mimetibody (Fc fusion)
chain: HSDGSFSDEMNTILDNLAARDFINWLIQTKITDGSGGGSGTLVTVSSESKYGPPCPPCPAPEAAGGPSVFLFPPKPDTLMISRTPEVTCVVVDVSQEDPEVQFNWYVDGVEVHNAKTKPREEQFNSTYRVVSVLTVLHQDWLNGKEYKCKVSNKGLPSSIEKTISKAKGQPREPQVYTLPPSQEEMTKNQVSLTCLVKGFYPSDIAVEWESNGQPENNYKTTPPVLDSDGSFFLYSRLTVDKSRWQEGNVFSCSVMHEALHNHYTQKSLSLSLGK
As to B1, the binding result was “binds”.

Values taken from patent US20070212355A1 (priority 2005, published 2007).
